Drug screen on melanoma cell lines: cell count

Values as published with doi:10.1371/journal.pone.0140310, rounded.

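The test systems are human melanoma cell lines, treated with two drugs together for 72 h and then stained and imaged. Values are the number of DAPI-stained nuclei as a percentage of the DMSO control: 100 is no effect, lower means fewer cells. Every drug was used at one fixed concentration, the higher of two screened. The file gives one value for each pair and line, without errors, so small differences may be noise.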 Only some of the drugs and lines screened are listed, without regard to their results.

All values are for the listed drug together with vincristine (0.5 nM): CC[C@]1(O)C[C@H]2CN(CCc3c([nH]c4ccccc34)[C@@](C(=O)OC)(c3cc4c(cc3OC)N(C=O)[C@H]3[C@@](O)(C(=O)OC)[C@H](OC(C)=O)[C@]5(CC)C=CCN6CC[C@]43[C@@H]65)C2)C1

Drugs:
GW0742, 10000 nM: Cc1cc(SCc2sc(-c3ccc(C(F)(F)F)c(F)c3)nc2C)ccc1OCC(=O)O
crizotinib, 1000 nM: C[C@@H](Oc1cc(-c2cnn(C3CCNCC3)c2)cnc1N)c1c(Cl)ccc(F)c1Cl
Src-I1, 10000 nM: COc1cc2ncnc(Nc3ccc(Oc4ccccc4)cc3)c2cc1OC
BI-78D3, 1000 nM: O=c1[nH]nc(Sc2ncc([N+](=O)[O-])s2)n1-c1ccc2c(c1)OCCO2
KU-0063794, 100 nM: COc1ccc(-c2ccc3c(N4CCOCC4)nc(N4C[C@@H](C)O[C@@H](C)C4)nc3n2)cc1CO
bexarotene, 10000 nM: C=C(c1ccc(C(=O)O)cc1)c1cc2c(cc1C)C(C)(C)CCC2(C)C
BI-D1870, 1000 nM: CC(C)CCN1c2nc(Nc3cc(F)c(O)c(F)c3)ncc2N(C)C(=O)C1C (centres undefined)
veliparib, 7000 nM: C[C@]1(c2nc3c(C(N)=O)cccc3[nH]2)CCCN1
vatalanib, 10000 nM: Clc1ccc(Nc2nnc(Cc3ccncc3)c3ccccc23)cc1
embelin, 6000 nM: CCCCCCCCCCCC1=C(O)C(=O)C=C(O)C1=O
lenalidomide, 5000 nM: Nc1cccc2c1CN(C1CCC(=O)NC1=O)C2=O (centres undefined)
GW2580, 5000 nM: COc1ccc(COc2ccc(Cc3cnc(N)nc3N)cc2OC)cc1
A-769662, 10000 nM: N#Cc1c(O)c2c(-c3ccc(-c4ccccc4O)cc3)csc2[nH]c1=O
FH535, 5000 nM: Cc1cc([N+](=O)[O-])ccc1NS(=O)(=O)c1cc(Cl)ccc1Cl
GW9662, 10000 nM: O=C(Nc1ccccc1)c1cc([N+](=O)[O-])ccc1Cl
stibogluconate, 10000 nM: O=C(O)[C@@H]1[O][Sb](=[O])([O][Sb]2(=[O])[O][C@H]([C@H](O)CO)[C@H](O)[C@H](C(=O)O)[O]2)[O][C@H]([C@H](O)CO)[C@@H]1O (some centres undefined)
indole-3-carbinol, 4000 nM: OCc1c[nH]c2ccccc12
sorafenib, 2000 nM: CNC(=O)c1cc(Oc2ccc(NC(=O)Nc3ccc(Cl)c(C(F)(F)F)c3)cc2)ccn1
RKI-983, 2000 nM: C[C@@H](N)c1ccc(C(=O)Nc2ccnc3[nH]ccc23)cc1
perifosine, 2000 nM: CCCCCCCCCCCCCCCCCCOP(=O)([O-])OC1CC[N+](C)(C)CC1
LFM-A13, 10000 nM: C/C(O)=C(\C#N)C(=O)Nc1cc(Br)ccc1Br
darinaparsin, 2000 nM: C[As](C)SC[C@H](NC(=O)CC[C@H](N)C(=O)O)C(=O)NCC(=O)O
GW441756, 2000 nM: Cn1cc(/C=C2\C(=O)Nc3cccnc32)c2ccccc21
pazopanib, 2000 nM: Cc1ccc(Nc2nccc(N(C)c3ccc4c(C)n(C)nc4c3)n2)cc1S(N)(=O)=O
bortezomib, 5 nM: CC(C)C[C@H](NC(=O)[C@H](Cc1ccccc1)NC(=O)c1cnccn1)B(O)O
VX-702, 2000 nM: NC(=O)c1ccc(N(C(N)=O)c2c(F)cccc2F)nc1-c1ccc(F)cc1F
selumetinib, 75 nM: Cn1cnc2c(F)c(Nc3ccc(Br)cc3Cl)c(C(=O)NOCCO)cc21
OSI-906, 2000 nM: C[C@]1(O)C[C@@H](c2nc(-c3ccc4ccc(-c5ccccc5)nc4c3)c3c(N)nccn32)C1
docetaxel, 0.5 nM: CC(=O)O[C@@]12CO[C@@H]1C[C@H](O)[C@@]1(C)C(=O)[C@H](O)C3=C(C)[C@@H](OC(=O)[C@H](O)[C@@H](NC(=O)OC(C)(C)C)c4ccccc4)C[C@@](O)([C@@H](OC(=O)c4ccccc4)[C@H]21)C3(C)C
nilotinib, 1000 nM: Cc1cn(-c2cc(NC(=O)c3ccc(C)c(Nc4nccc(-c5cccnc5)n4)c3)cc(C(F)(F)F)c2)cn1
NVP-BEZ235, 20 nM: Cn1c(=O)n(-c2ccc(C(C)(C)C#N)cc2)c2c3cc(-c4cnc5ccccc5c4)ccc3ncc21
PD173074, 500 nM: CCN(CC)CCCCNc1ncc2cc(-c3cc(OC)cc(OC)c3)c(NC(=O)NC(C)(C)C)nc2n1
palbociclib, 200 nM: CC(=O)c1c(C)c2cnc(Nc3ccc(N4CCNCC4)cn3)nc2n(C2CCCC2)c1=O
TCS401, 8330 nM: O=C(O)C(=O)Nc1sc2c(c1C(=O)O)CCNC2

Partner	COLO 792	C32	COLO 800	COLO 829	WM451Lu	WM3619
OSI-906	97.3	66.5	40.0	122	36.8	76.2
nilotinib	127	91.1	88.2	93.3	38.7	79.1
embelin	66.7	74.3	74.9	48.4	34.3	31.6
selumetinib	94.4	79.1	128	85.0	40.1	54.9
docetaxel	17.7	80.0	23.5	25.8	37.8	36.0
lenalidomide	144	89.3	60.0	69.9	49.7	57.5
pazopanib	110	97.6	223	80.9	52.7	49.9
GW2580	106	106	79.1	108	31.1	91.4
bexarotene	83.8	105	110	49.3	59.7	54.8
LFM-A13	75.1	59.3	62.5	44.0	43.7	45.5
indole-3-carbinol	93.9	85.9	59.0	100	51.0	60.3
VX-702	114	101	82.3	81.3	62.8	102
veliparib	73.3	60.8	24.4	50.4	24.0	34.2
RKI-983	77.7	59.2	15.9	66.1	18.5	37.2
BI-D1870	53.4	43.0	50.6	52.0	29.4	41.7
Src-I1	78.5	73.9	81.9	62.5	27.6	48.1
darinaparsin	52.4	51.3	39.5	41.7	16.0	37.6
TCS401	86.7	70.5	72.6	47.1	41.0	29.0
GW441756	111	92.5	75.1	88.4	32.0	75.6
BI-78D3	65.9	79.0	57.7	80.1	32.3	42.2
vatalanib	33.1	24.2	15.3	19.7	31.6	23.6
stibogluconate	112	99.0	98.8	59.8	42.3	98.9
GW0742	85.3	78.7	70.4	53.8	38.3	26.4
palbociclib	48.4	73.8	79.0	77.5	35.0	51.8
perifosine	135	93.9	114	95.2	39.7	57.9
crizotinib	98.8	86.8	69.3	71.9	53.6	101
bortezomib	27.7	18.7	94.7	10.2	28.6	2.8
GW9662	62.9	39.3	18.1	29.6	25.7	36.4
A-769662	87.7	78.6	42.6	40.9	27.9	31.5
FH535	71.1	44.6	64.3	57.6	33.1	51.2
sorafenib	97.7	69.7	94.8	76.7	45.5	48.6
KU-0063794	82.2	95.5	134	88.6	30.4	42.4
PD173074	85.6	106	80.4	103	42.3	80.8
NVP-BEZ235	60.2	69.5	95.1	82.8	37.2	42.8

For reference, 2 entries once more:

| Partner | COLO 792 | C32 | COLO 800 | COLO 829 | WM451Lu | WM3619 |
|---|---|---|---|---|---|---|
| selumetinib | 94.4 | 79.1 | 128 | 85.0 | 40.1 | 54.9 |
| GW441756 | 111 | 92.5 | 75.1 | 88.4 | 32.0 | 75.6 |